The source of these data is publication PMC7819943, “Rice protein-binding microarrays: a tool to detect cis-acting elements near promoter regions in rice”.

Chains of the proteins cited; added tags and fusions are not shown.
UniProt Q0JBA9, entry or part of it: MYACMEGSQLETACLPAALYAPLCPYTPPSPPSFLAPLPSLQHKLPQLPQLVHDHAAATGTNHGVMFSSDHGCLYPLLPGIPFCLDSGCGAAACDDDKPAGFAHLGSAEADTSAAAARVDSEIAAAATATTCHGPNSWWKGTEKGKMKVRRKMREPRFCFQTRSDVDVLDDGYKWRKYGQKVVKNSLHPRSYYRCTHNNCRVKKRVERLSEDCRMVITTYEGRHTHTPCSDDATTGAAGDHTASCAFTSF

Some of the results follow.

In this assay the target is OsWRKY34 (Oryza sativa, UniProt Q0JBA9 1-250). Put plainly: protein-binding microarray (RPBM); PBS, 2% BSA, 51.3 ng/ul salmon testes DNA, 50 uM zinc acetate, 200 nM TF, 25 C, 1 h; high values mean tight binding. The conditions noted are these: protein: recombinant; tags: N-terminal polyhistidine and DsRed monomer fusion (pET32a); label: CyDye5-dUTP incorporated in the synthesized complementary strand; 3' TTTTT single-stranded linker to array surface; dsDNA, one strand shown. The essentials:
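Transcription factors, each fused N-terminally to a polyhistidine tag and DsRed, were expressed in E. coli BL21-CodonPlus and purified on Ni–NTA. A custom Agilent array was made double-stranded by primer extension with Cy5-dUTP and blocked with 2% BSA. It was incubated with 200 nM protein in PBS, 2% BSA, salmon testes DNA and 50 µM zinc acetate at 25 °C for 1 h, then washed. The binding signal is per-feature fluorescence intensity (arbitrary units) read on an Axon 4000B scanner.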
Turning to “GTACGACCAATTTCCGTTTCATCATCATGTCGGGCAGTAACGGAGTCACCTAGTGCAG”, the binding signal was 9590 fluorescence intensity (a.u.).
For the sequence “TGTTCTTGGCTGCTGGTCTTAGTTTTTGGCTGTCATGTATCGGAGTCACCTAGTGCAG”, the binding signal is 11100 fluorescence intensity (a.u.).
Consider “GCGCGCGTCCCGTCACGTCTTTTCTCCTCGCCTATATGCCCGGAGTCACCTAGTGCAG”, for which the binding signal is 9050 fluorescence intensity (a.u.).
Next, “CCCGATCCCATGTCACCGACACCCTCCGTTTCTAAATATTCGGAGTCACCTAGTGCAG”: 11600 fluorescence intensity (a.u.); “GTGTTAGACGAAATGTCTCACCCAGCATCGCACCACTTTCCGGAGTCACCTAGTGCAG”: 8030 fluorescence intensity (a.u.).
Under “AATTAATCCGTCATTAGAGTTTATTGTAGCACCACATTGTCGGAGTCACCTAGTGCAG” stands 8160 fluorescence intensity (a.u.); under “GTTGATGTTCGCCGACCCCACGATGATGTACTCGTCGTCCCGGAGTCACCTAGTGCAG”, 8770 fluorescence intensity (a.u.); under “TCGCGTGCTGCTTCTCGCTACCTCGTTGCAGTCACTACACCGGAGTCACCTAGTGCAG”, 8440 fluorescence intensity (a.u.).
In the case of “TCATACGACACTACGCCTGGTCGACCTTATTATTACCAACCGGAGTCACCTAGTGCAG”, the binding signal is 14800 fluorescence intensity (a.u.).
Next, “CGTACGCGCCCACGCCCACTCCCACGCCTTCGCGCGCGCGCGGAGTCACCTAGTGCAG”: 9220 fluorescence intensity (a.u.); “TTTTGCTTGCAACGTTTCACCACTCGTCTTATTCAAAATTCGGAGTCACCTAGTGCAG”: 8750 fluorescence intensity (a.u.); “GTACTTCCTACTGTTACATATGTCATCGTCATCTTCTCCACGGAGTCACCTAGTGCAG”: 8090 fluorescence intensity (a.u.).
With “ATCCTTTTTCATTTTACCTGTTTTATTTACTTTAGTTAGTCGGAGTCACCTAGTGCAG”, the binding signal was 15600 fluorescence intensity (a.u.).
Take “GACCAATGTGCGCCCAAGATTGATCTGCCACCGTCCGTGACGGAGTCACCTAGTGCAG”: the binding signal was 9240 fluorescence intensity (a.u.).
Under “GCACCAGAAATGGCCATGGTCAGCTTCAGAAATTCATGACCGGAGTCACCTAGTGCAG” stands 8230 fluorescence intensity (a.u.).
For the sequence “GATTCAGCGTATAAGTACCCCTAGTGTTCACCTCTCTTCTCGGAGTCACCTAGTGCAG”, the binding signal is 8470 fluorescence intensity (a.u.).
Under “TCTCCACTGTGCATACGCTTCTCTCTTTCCGCCACGGCGACGGAGTCACCTAGTGCAG” stands 8210 fluorescence intensity (a.u.).
Under “ATAAAACAAATGGTCAAACGTTAGTCGAAAAGTCAACGGCCGGAGTCACCTAGTGCAG” stands 12300 fluorescence intensity (a.u.); under “TTTTCGTGTTCGGGTTTGGGTTTGAGTGCCGCATCTGCAACGGAGTCACCTAGTGCAG”, 21500 fluorescence intensity (a.u.); under “TCGCCGTCGCCCCTGAGTTCGTGTTCTGCTGTTGAACCGCCGGAGTCACCTAGTGCAG”, 9890 fluorescence intensity (a.u.).
With “GCAGCCTCGCTCAGCTCGATCTCTCTCTCGTCTCGCCATGCGGAGTCACCTAGTGCAG”, the binding signal was 8530 fluorescence intensity (a.u.).
On to “AGAGACAGAGATCAGTGACACGCATCTACCACTAAAATTTCGGAGTCACCTAGTGCAG”, for which the binding signal was 8440 fluorescence intensity (a.u.).
Under “GGGCTCGCCGCCGTTGACCCGCAGGGCGTCGGAGCACGGTCGGAGTCACCTAGTGCAG” stands 8140 fluorescence intensity (a.u.); under “GGGAAAATGGCGAGCATTCTTTTTTTTTTCTCTCGGGGTTCGGAGTCACCTAGTGCAG”, 10300 fluorescence intensity (a.u.).
As for “CATACAGCTGAGCTGATGATGGTTATCGTTCTGAACTTCTCGGAGTCACCTAGTGCAG”, the binding signal is 8550 fluorescence intensity (a.u.).
Next, “GCCCCGTTGGCCAAATCTCTCTCCCTCACTTCAGTTCCGCCGGAGTCACCTAGTGCAG”: 9100 fluorescence intensity (a.u.); “CTCTGTTTCTAAATATTTGACACCATTGACTTTTTAGCATCGGAGTCACCTAGTGCAG”: 10900 fluorescence intensity (a.u.).
For “GGTTACGCGTCCATTTCATCTCGAGATTTTTCTCCTCTTCCGGAGTCACCTAGTGCAG”, the binding signal was 11100 fluorescence intensity (a.u.).
Next, “TTTTAATGTATGACGCCGTTGACTTTTTATACGTTTGACCCGGAGTCACCTAGTGCAG”: 32200 fluorescence intensity (a.u.); “TTTTTCCCCTTTCTTCTCCTTTCTCTGTTATCCGTGCAGACGGAGTCACCTAGTGCAG”: 9020 fluorescence intensity (a.u.); “GAACAACAACATGCCGCACGTGCGTATATATATATATATCCGGAGTCACCTAGTGCAG”: 10800 fluorescence intensity (a.u.).
For “CACACATTGTTAACATCACAGTGTACTAGCCATCTACTGTCGGAGTCACCTAGTGCAG”, the binding signal is 8600 fluorescence intensity (a.u.).
Regarding “ACCCACCATTATTCTCCTCCGGGCACCACGTCGAACACCTCGGAGTCACCTAGTGCAG”, the binding signal is 8820 fluorescence intensity (a.u.).
Under “ACCGGCGGCCACTCATCGATCCACTACCCCACTGCACTCGCGGAGTCACCTAGTGCAG” stands 9480 fluorescence intensity (a.u.); under “CTCTACTTTTCCTGGGCCCTAGGCCATCGCACTTCTTGCCCGGAGTCACCTAGTGCAG”, 8990 fluorescence intensity (a.u.).
Next, “GATCTCAATCCGACCAGGGACGGGGCCTCCTCGCATTTCCCGGAGTCACCTAGTGCAG”: 8060 fluorescence intensity (a.u.); “GTATTAGGACCTATTTCGGGAAACTTTTAGTAGCTGTATCCGGAGTCACCTAGTGCAG”: 8340 fluorescence intensity (a.u.); “CCCATCCCAGCCTGCAGAGCCGCCGCCGCCGCCGCAAGCGCGGAGTCACCTAGTGCAG”: 8270 fluorescence intensity (a.u.).
Next, “TTGTTGCTCTACCAATTGTTTCTCTTTTTACGGTGTATTCCGGAGTCACCTAGTGCAG”: 10000 fluorescence intensity (a.u.); “ATGTGTATATTAGCATTATGATTTATGTCCTTATACTCCTCGGAGTCACCTAGTGCAG”: 8200 fluorescence intensity (a.u.); “GTCGCCGTAAACTTCGCCGTTTCCTGTAATTTCCTGCTTCCGGAGTCACCTAGTGCAG”: 9160 fluorescence intensity (a.u.).
Consider “CAGTGTCCGTTTTCTCCGACAAACTCGGCGTGGCCACAGTCGGAGTCACCTAGTGCAG”, for which the binding signal is 9840 fluorescence intensity (a.u.).
